# Article PMC5945521
# Results are given in words; binding and its absence hold for the method and conditions named. Binding seen in cells or lysates may run through a third protein.
# Assays:
# [1] = molecular target: p53 (endogenous, HeLa) (human (endogenous in HeLa)) (UniProt P04637); assay: co-IP; crude nuclear extract (1 mg) of Nutlin-3a-treated (10 μM, 4 h) IMR-32 or HeLa cells, anti-p53 (Ab-7) or control sheep IgG overnight at 4°C, Protein G agarose, washes with 0.15% NP-40 in nuclei lysis buffer, Western blot
# [2] = molecular target: p53 (endogenous, IMR-32 nuclear extract) (human (endogenous in IMR-32)) (UniProt P04637); assay: as above
Substance,binding [1],binding [2]
"MAX (endogenous, HeLa) (from UniProt P61244 1-160)",no binding,–
"MAX (endogenous, IMR-32 nuclear extract) (from UniProt P61244 1-160)",–,no binding
